# Measurements as given in the supplement of paper PMC8728848.
# Some of the results follow.
# How the values were obtained:
# Assay in all cases: glycan array binding signal (z-score within array); higher = stronger binding
# Settings in all cases: glycan notation: IUPAC condensed, linker removed
# [1] = tested on: Gal(a1-3)[Gal(a1-4)]Gal(b1-4)GlcNAc
# Outline: (§1)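 From the Consortium for Functional Glycomics database, 3228 arrays were curated, keeping only those whose protein sequence was available. Binding is given as a within-array Z-score averaged across arrays sharing a protein sequence and across linkers. Negative Z-scores can be read as non-binding.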
# [2] = tested on: Gal(a1-4)Gal(b1-3)GlcNAc(b1-2)Man(a1-3)[Gal(a1-4)Gal(b1-3)GlcNAc(b1-2)Man(a1-6)]Man(b1-4)GlcNAc(b1-4)GlcNAc
# Outline: as §1
# [3] = tested on: Gal(a1-4)Gal(b1-4)GlcNAc(b1-2)Man(a1-3)[Gal(a1-4)Gal(b1-4)GlcNAc(b1-2)Man(a1-6)]Man(b1-4)GlcNAc(b1-4)GlcNAc
# Outline: as §1
# [4] = tested on: Gal(a1-4)Gal(b1-4)GlcNAc(b1-3)Gal(b1-4)Glc
# Outline: as §1
# [5] = tested on: Gal(a1-4)Gal(b1-4)GlcNAc
# Outline: as §1
# [6] = tested on: Gal(a1-4)Gal(b1-4)Glc
# Outline: as §1
# [7] = tested on: Gal(a1-4)GlcNAc
# Outline: as §1
# [8] = tested on: Gal(a1-6)Glc
# Outline: as §1
# [9] = tested on: Gal(b1-2)Gal
# Outline: as §1
# [10] = tested on: Gal(b1-3)Gal(b1-4)GlcNAc
# Outline: as §1
# [11] = tested on: Gal(b1-3)GalNAc(a1-3)[Fuc(a1-2)]Gal(b1-4)GlcNAc
# Outline: as §1
# [12] = tested on: Gal(b1-3)GalNAc(a1-3)[Fuc(a1-2)]Gal(b1-4)Glc
# Outline: as §1
# [13] = tested on: Gal(b1-3)GalNAc(b1-3)Gal(a1-4)Gal(b1-4)Glc
# Outline: as §1
# [14] = tested on: Gal(b1-3)GalNAc(b1-3)Gal
# Outline: as §1
# [15] = tested on: Gal(b1-3)GalNAc(b1-4)Gal(b1-4)Glc
# Outline: as §1
# [16] = tested on: Gal(b1-3)GalNAc(b1-4)[Neu5Ac(a2-3)]Gal(b1-4)Glc
# Outline: as §1
# [17] = tested on: Gal(b1-3)GalNAc
# Outline: as §1
# [18] = tested on: Gal(b1-3)Gal
# Outline: as §1
# [19] = tested on: Gal(b1-3)GlcNAc(a1-3)Gal(b1-4)GlcNAc
# Outline: as §1
# [20] = tested on: Gal(b1-3)GlcNAc(a1-6)Gal(b1-4)GlcNAc
# Outline: as §1
# [21] = tested on: Gal(b1-3)GlcNAc(b1-2)Man(a1-3)[Gal(b1-3)GlcNAc(b1-2)Man(a1-6)]Man(b1-4)GlcNAc(b1-4)GlcNAc
# Outline: as §1
# [22] = tested on: Gal(b1-3)GlcNAc(b1-2)Man(a1-3)[Gal(b1-3)GlcNAc(b1-2)Man(a1-6)]Man(b1-4)GlcNAc(b1-4)[Fuc(a1-6)]GlcNAc
# Outline: as §1
# [23] = tested on: Gal(b1-3)GlcNAc(b1-2)Man(a1-3)[GlcNAc(b1-4)][Gal(b1-3)GlcNAc(b1-2)Man(a1-6)]Man(b1-4)GlcNAc(b1-4)GlcNAc
# Outline: as §1
# [24] = tested on: Gal(b1-3)GlcNAc(b1-2)Man
# Outline: as §1
# [25] = tested on: Gal(b1-3)GlcNAc(b1-2)[Gal(b1-3)GlcNAc(b1-6)]Man(a1-6)[Gal(b1-3)GlcNAc(b1-2)Man(a1-3)]Man(b1-4)GlcNAc(b1-4)GlcNAc
# Outline: as §1
# [26] = tested on: Gal(b1-3)GlcNAc(b1-3)Gal(b1-3)GlcNAc
# Outline: as §1
# [27] = tested on: Gal(b1-3)GlcNAc(b1-3)Gal(b1-4)GlcNAc(b1-2)Man(a1-3)[Gal(b1-3)GlcNAc(b1-3)Gal(b1-4)GlcNAc(b1-2)Man(a1-6)]Man(b1-4)GlcNAc(b1-4)GlcNAc
# Outline: as §1
# [28] = tested on: Gal(b1-3)GlcNAc(b1-3)Gal(b1-4)GlcNAc(b1-2)[Gal(b1-3)GlcNAc(b1-3)Gal(b1-4)GlcNAc(b1-6)]Man(a1-6)[Gal(b1-3)GlcNAc(b1-3)Gal(b1-4)GlcNAc(b1-2)Man(a1-3)]Man(b1-4)GlcNAc(b1-4)[Fuc(a1-6)]GlcNAc
# Outline: as §1
# [29] = tested on: Gal(b1-3)GlcNAc(b1-3)Gal(b1-4)GlcNAc(b1-3)Gal(b1-4)GlcNAc(b1-2)[Gal(b1-3)GlcNAc(b1-3)Gal(b1-4)GlcNAc(b1-3)Gal(b1-4)GlcNAc(b1-6)]Man(a1-6)[Gal(b1-3)GlcNAc(b1-3)Gal(b1-4)GlcNAc(b1-3)Gal(b1-4)GlcNAc(b1-2)Man(a1-3)]Man(b1-4)GlcNAc(b1-4)[Fuc(a1-6)]GlcNAc
# Outline: as §1
# [30] = tested on: Gal(b1-3)GlcNAc(b1-3)Gal(b1-4)GlcNAc(b1-6)[Gal(b1-3)GlcNAc(b1-3)]Gal(b1-4)Glc
# Outline: as §1
# [31] = tested on: Gal(b1-3)GlcNAc(b1-3)Gal(b1-4)GlcNAc
# Outline: as §1
# [32] = tested on: Gal(b1-3)GlcNAc(b1-3)Gal(b1-4)Glc
# Outline: as §1
substance,measurement,setting,value
MpAFP RI GFP (Marinomonas primoryensis),glycan array binding signal (z-score),[1],-0.392
same,glycan array binding signal (z-score),[2],-0.349
same,glycan array binding signal (z-score),[3],-0.087
same,glycan array binding signal (z-score),[4],-0.588
same,glycan array binding signal (z-score),[5],0.997
same,glycan array binding signal (z-score),[6],-0.228
same,glycan array binding signal (z-score),[7],0.126
same,glycan array binding signal (z-score),[8],-0.224
same,glycan array binding signal (z-score),[9],-0.213
same,glycan array binding signal (z-score),[10],-0.374
same,glycan array binding signal (z-score),[11],0.016
same,glycan array binding signal (z-score),[12],0.006
same,glycan array binding signal (z-score),[13],-0.49
same,glycan array binding signal (z-score),[14],0.931
same,glycan array binding signal (z-score),[15],0.076
same,glycan array binding signal (z-score),[16],-0.54
same,glycan array binding signal (z-score),[17],-0.261
same,glycan array binding signal (z-score),[18],-0.099
same,glycan array binding signal (z-score),[19],-0.503
same,glycan array binding signal (z-score),[20],-0.716
same,glycan array binding signal (z-score),[21],0.022
same,glycan array binding signal (z-score),[22],-0.107
same,glycan array binding signal (z-score),[23],1.37
same,glycan array binding signal (z-score),[24],0.239
same,glycan array binding signal (z-score),[25],-0.098
same,glycan array binding signal (z-score),[26],-0.545
same,glycan array binding signal (z-score),[27],-0.371
same,glycan array binding signal (z-score),[28],0.507
same,glycan array binding signal (z-score),[29],2.1
same,glycan array binding signal (z-score),[30],-0.722
same,glycan array binding signal (z-score),[31],-0.335
same,glycan array binding signal (z-score),[32],-0.427

# Two neighbouring records already listed, for reference:
substance,measurement,setting,value
MpAFP RI GFP (Marinomonas primoryensis),glycan array binding signal (z-score),[2],-0.349
same,glycan array binding signal (z-score),[3],-0.087
